Assay results reported in patent publication US20210230288A1.
No constants are given. Whether binding was seen depends on the method and setting. Some entries that bind do so weakly or less than the wild type.

By UniProt entry, the sequences of proteins in these tests, tags left out. Where a name states a change or a piece, a line headed by the entry shows the natural chain unless it says otherwise. Chains listed by the source or under a name are the forms on record and can include a tag or linker.
cynomolgus PD-L1 (cynomolgus (Macaca fascicularis)) (G7PSE7, form named): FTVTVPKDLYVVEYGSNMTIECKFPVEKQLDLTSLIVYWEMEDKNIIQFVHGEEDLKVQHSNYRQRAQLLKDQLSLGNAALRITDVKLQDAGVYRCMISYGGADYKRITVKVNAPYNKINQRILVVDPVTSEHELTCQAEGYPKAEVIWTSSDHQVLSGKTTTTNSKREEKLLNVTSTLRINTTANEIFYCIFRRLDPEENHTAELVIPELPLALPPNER

Target: cynomolgus PD-L1 (cynomolgus (Macaca fascicularis)) (UniProt G7PSE7)
Experiment: flow cytometry (FIG. 16B)

binding: binds
B1: CAR comprising the DBDpp pb04 (receptor, not shown: small tags and cut ends)
chain: MGSWYEFTVRLEAIHERLKALGGSEAELAAFEKEIAAFESELQAYKGKGNPEVEILRDDAAFIRRFLQAYRHN
